Reference: doi:10.1101/2024.09.20.612365, “Preventing Inappropriate Signals Pre- and Post-Ligand Perception by a Toggle-Switch Mechanism of ERECTA” (bioRxiv, 2024)
Changes are numbered by the printed parent chain. Results are given in words; binding and its absence hold for the method and conditions named. For some of these results: In cells and extracts the contact can be indirect. Some results given as binding are weak or reduced against the parent protein; the word gives no strength. Tags and fused reporters may be left off the sequences shown.

What was measured:
PUB31-MYC (Arabidopsis) = biological target: T1, PUB31-MYC (Arabidopsis) (UniProt Q9FHN9); assay: co-IP; Arabidopsis protoplasts co-expressing ER-HA variants and PUB31-MYC (Fig. S7B); legend not shown
T1 sequence: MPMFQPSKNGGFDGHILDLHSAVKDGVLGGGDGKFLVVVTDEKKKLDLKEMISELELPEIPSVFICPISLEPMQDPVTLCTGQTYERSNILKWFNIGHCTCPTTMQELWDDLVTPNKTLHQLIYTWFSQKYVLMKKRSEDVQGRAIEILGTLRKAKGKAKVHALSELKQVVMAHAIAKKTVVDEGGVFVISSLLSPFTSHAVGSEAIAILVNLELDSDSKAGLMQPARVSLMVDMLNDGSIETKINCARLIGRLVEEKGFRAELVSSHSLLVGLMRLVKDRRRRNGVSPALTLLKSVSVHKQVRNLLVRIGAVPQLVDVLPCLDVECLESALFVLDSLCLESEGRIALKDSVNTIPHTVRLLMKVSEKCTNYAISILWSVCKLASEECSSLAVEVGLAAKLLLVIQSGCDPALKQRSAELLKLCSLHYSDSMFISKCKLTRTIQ

[1] = biological target: T2, PUB31 (as used in Fig. S7A) (Arabidopsis) (UniProt Q9FHN9); assay: BLI; PUB31 with ER_CD and its C-terminal deletion version (Fig. S7A); legend and methods not shown, method taken from the paragraph on the BLI assays
T2 sequence: T1 sequence

[2] = biological target: T3, ER_(T/S8A)-FLAG, phosphonull version (Arabidopsis) (UniProt Q42371); assay: co-IP; proteins from double transgenic Arabidopsis lines (ERpro::BKI1-YFP with ERpro::ER-FLAG variants) immunoprecipitated with anti-FLAG beads, blots with anti-FLAG and anti-GFP; also seedlings treated with MEPF2 peptide (association decreased, Fig. S6)
T3 sequence: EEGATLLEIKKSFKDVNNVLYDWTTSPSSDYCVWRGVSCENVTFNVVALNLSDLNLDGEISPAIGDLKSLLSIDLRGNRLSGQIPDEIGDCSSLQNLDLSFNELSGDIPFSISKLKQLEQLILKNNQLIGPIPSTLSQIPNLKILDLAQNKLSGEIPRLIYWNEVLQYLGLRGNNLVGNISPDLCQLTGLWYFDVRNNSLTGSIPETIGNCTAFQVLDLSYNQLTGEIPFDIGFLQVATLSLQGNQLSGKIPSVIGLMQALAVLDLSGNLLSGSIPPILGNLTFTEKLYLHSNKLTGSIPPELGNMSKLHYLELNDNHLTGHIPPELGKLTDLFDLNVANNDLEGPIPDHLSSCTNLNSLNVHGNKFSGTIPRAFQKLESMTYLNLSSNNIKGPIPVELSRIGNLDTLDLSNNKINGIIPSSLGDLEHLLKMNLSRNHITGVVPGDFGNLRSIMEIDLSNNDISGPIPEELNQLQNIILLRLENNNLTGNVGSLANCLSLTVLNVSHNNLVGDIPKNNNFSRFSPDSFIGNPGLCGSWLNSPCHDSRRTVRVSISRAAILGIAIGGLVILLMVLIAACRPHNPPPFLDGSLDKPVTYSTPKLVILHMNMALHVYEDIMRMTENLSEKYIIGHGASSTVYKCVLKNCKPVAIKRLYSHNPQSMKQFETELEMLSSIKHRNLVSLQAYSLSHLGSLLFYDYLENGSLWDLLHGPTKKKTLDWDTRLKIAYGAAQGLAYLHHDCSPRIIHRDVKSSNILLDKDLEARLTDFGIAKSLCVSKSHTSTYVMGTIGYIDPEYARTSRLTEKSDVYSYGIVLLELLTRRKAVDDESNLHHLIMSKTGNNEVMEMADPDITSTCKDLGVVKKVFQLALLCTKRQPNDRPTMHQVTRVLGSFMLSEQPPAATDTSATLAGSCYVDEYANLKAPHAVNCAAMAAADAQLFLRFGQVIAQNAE

ER-FLAG (Arabidopsis) = biological target: T4, ER-FLAG (Arabidopsis) (UniProt Q42371); assay: as above
T4 sequence: T3 sequence with A923T, A926S, A930S, A931S, A933S, A935S, A948S, A951S

B1: ER-HA (receptor, UniProt Q42371 25-976)
chain: T3 sequence with A923T, A926S, A930S, A931S, A933S, A935S, A948S, A951S
binding (PUB31-MYC (Arabidopsis)): binds

B2: MBP-fused full-length ER cytoplasmic domain (MBP-ER_CD) (domain or fragment, Arabidopsis, UniProt Q42371 602-976, looked up)
chain: CRPHNPPPFLDGSLDKPVTYSTPKLVILHMNMALHVYEDIMRMTENLSEKYIIGHGASSTVYKCVLKNCKPVAIKRLYSHNPQSMKQFETELEMLSSIKHRNLVSLQAYSLSHLGSLLFYDYLENGSLWDLLHGPTKKKTLDWDTRLKIAYGAAQGLAYLHHDCSPRIIHRDVKSSNILLDKDLEARLTDFGIAKSLCVSKSHTSTYVMGTIGYIDPEYARTSRLTEKSDVYSYGIVLLELLTRRKAVDDESNLHHLIMSKTGNNEVMEMADPDITSTCKDLGVVKKVFQLALLCTKRQPNDRPTMHQVTRVLGSFMLSEQPPAATDTSATLAGSCYVDEYANLKTPHSVNCSSMSASDAQLFLRFGQVISQNSE
notes: ERECTA (ER) LRR receptor kinase, Arabidopsis; full-length cytoplasmic domain (juxtamembrane domain, kinase domain, C-terminal tail); source: expressed and purified (recombinantly purified)
binding [1]: binds

B3: GST-BKI1 (BRI1 KINASE INHIBITOR 1) (natural protein, Arabidopsis, UniProt Q9FMZ0 1-337, looked up)
chain: METNLQQVKNSSQTFSEKQNPKQEASPSPISSTCSSPSHDFSFTISLQPLSSSSKHISPTLRSPSKTTSSYQQTDPFAVDLSPADEIFFHGHLLPLHLLSHLPVSPRTSTGSYNDGFTLPVKDILPDQPTNNNNNTENAITNISTEAKDDNTEDKAEGEIRVKTKPIKSFSLFGLSKWRKGFESNEREQEQQQQKIKKPMSLDLSHAVKKYIRMLFQKRGNGTQFWNRRQTSSYSFSSSLMGPNGNSKTMINGSYNKRDLIRGRRGELFSAPASMRTSPTNSGHLRVSTAGLSSSSGSTSSSSSDSTMEELQAAIQAAIAHCKNSSAVDRDDKVKDS
notes: source: recombinantly purified
binding [2]: binds
binding (ER-FLAG (Arabidopsis)): binds
